Measurements as given in paper PMC12499470.
These are yes or no findings as the source states them, for the method shown. For part of these data: In cells and extracts the contact can be indirect. Some binding calls cover weakened binding; strength is not graded here. Tags and fused reporters may be left off the sequences shown. Values belong to the binder of their own block, whether it stands above or below them.

Key:
[1] = target: T1, GST-PKGα (recombinant GST-tagged PKGα fusion protein) (UniProt Q13976); test: pull-down; 500 ng GST or GST-PKG on GST magnetic beads, incubated with 200 ng recombinant HSL in GST-binding buffer with cGMP (15 µM), 4 °C, 2 h; Western blot; both purified
T1 sequence: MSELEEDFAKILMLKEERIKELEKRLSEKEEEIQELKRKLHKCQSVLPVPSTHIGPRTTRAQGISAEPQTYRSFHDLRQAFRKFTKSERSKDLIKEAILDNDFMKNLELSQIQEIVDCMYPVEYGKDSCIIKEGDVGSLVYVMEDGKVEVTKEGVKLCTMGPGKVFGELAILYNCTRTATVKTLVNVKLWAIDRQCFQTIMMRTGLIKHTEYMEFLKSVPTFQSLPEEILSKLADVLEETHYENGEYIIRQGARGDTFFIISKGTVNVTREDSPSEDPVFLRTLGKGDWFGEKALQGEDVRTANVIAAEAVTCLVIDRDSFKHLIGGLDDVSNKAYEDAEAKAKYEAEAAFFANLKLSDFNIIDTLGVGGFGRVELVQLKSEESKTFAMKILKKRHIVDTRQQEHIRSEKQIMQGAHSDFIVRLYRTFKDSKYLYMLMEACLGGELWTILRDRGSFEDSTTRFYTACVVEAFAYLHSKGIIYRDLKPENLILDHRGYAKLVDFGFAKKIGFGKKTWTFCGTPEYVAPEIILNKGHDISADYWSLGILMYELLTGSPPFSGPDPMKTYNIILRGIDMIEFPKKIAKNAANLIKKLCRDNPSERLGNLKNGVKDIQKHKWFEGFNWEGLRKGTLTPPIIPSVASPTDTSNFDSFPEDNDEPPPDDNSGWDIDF

[2] = target: T1, GST-PKGα (recombinant GST-tagged PKGα fusion protein); test: pull-down; 500 ng GST-PKG on GST magnetic beads, incubated with MGC803 or MKN1 cell lysate in GST-binding buffer with cGMP (15 µM), 4 °C, 2 h; Western blot; only the target purified
[3] = target: T2, HSL 1-343-FLAG (tissue specific additional N-terminal domain of HSL) (human) (UniProt Q05469); test: co-IP; HEK293T cells co-transfected with HA- and FLAG-tagged constructs, lysates after 48 h, immunoprecipitation with EZview Red anti-FLAG M2 affinity gel, Western blot
T2 sequence: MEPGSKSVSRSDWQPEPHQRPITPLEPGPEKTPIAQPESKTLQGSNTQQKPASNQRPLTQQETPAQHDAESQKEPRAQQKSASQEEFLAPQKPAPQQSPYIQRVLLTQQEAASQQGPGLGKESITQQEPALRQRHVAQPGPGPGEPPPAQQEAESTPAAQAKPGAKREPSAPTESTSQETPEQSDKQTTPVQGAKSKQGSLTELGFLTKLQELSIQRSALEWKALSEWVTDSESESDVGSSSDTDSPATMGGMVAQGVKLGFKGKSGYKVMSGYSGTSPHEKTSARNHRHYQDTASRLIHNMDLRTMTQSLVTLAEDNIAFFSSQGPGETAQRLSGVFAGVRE

[4] = target: T3, HSL-FLAG (hormone-sensitive lipase, FLAG-tagged) (human) (UniProt Q05469); test: as above
T3 sequence: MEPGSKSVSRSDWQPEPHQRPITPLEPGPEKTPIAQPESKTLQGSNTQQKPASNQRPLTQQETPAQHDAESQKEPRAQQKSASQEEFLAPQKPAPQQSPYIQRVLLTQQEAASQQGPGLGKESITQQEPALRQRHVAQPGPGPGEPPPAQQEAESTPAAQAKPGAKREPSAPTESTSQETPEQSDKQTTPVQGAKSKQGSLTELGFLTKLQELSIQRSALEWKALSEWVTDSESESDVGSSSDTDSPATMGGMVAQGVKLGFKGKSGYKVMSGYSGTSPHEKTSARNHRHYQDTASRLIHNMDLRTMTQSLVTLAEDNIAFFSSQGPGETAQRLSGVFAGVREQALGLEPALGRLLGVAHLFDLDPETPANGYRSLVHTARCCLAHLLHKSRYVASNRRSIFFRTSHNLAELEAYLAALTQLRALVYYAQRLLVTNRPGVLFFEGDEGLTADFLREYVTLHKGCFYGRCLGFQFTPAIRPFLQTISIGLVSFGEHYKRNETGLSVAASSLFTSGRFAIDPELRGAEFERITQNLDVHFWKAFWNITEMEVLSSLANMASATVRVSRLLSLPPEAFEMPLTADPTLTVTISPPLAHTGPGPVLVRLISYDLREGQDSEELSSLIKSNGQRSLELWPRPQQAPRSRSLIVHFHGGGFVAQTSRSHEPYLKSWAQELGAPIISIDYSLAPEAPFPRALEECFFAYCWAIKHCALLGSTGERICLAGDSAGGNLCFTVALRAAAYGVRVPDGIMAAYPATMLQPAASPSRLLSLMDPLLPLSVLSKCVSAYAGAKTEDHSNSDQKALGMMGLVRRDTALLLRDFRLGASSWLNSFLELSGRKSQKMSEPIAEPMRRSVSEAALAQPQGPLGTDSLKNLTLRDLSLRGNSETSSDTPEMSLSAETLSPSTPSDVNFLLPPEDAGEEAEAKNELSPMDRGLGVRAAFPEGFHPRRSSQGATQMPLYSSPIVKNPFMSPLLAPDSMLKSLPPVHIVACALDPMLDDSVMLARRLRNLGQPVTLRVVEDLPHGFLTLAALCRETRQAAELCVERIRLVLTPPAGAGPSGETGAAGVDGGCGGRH

[5] = target: T4, HSL 666-1076-FLAG (regulatory domain of HSL) (human) (UniProt Q05469); test: as above
T4 sequence: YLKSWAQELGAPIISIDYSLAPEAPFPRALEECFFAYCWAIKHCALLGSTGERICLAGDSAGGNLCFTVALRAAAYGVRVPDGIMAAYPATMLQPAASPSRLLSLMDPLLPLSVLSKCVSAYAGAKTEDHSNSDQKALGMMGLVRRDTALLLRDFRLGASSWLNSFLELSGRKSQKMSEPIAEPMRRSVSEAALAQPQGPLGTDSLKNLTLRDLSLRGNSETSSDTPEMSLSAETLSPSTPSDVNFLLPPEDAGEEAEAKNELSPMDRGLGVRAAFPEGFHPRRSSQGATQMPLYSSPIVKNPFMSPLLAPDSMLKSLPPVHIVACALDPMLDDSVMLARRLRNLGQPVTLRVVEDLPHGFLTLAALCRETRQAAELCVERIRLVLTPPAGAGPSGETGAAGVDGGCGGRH

[6] = target: T5, HSL 344-665-FLAG (N-terminal domain of HSL) (human) (UniProt Q05469); test: as above
T5 sequence: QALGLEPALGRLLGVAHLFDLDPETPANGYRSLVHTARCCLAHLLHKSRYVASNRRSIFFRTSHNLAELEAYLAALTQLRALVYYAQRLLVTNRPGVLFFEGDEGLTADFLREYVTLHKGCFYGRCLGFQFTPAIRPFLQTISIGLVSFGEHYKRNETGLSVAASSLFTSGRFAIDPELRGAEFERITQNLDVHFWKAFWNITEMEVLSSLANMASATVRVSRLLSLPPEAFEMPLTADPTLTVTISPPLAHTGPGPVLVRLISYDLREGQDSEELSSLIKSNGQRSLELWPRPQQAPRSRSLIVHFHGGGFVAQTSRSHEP

binding [1]: binds
B1: HSL-HIS (recombinant hormone-sensitive lipase, His-tagged) (enzyme, UniProt Q05469 1-1076)
chain: MEPGSKSVSRSDWQPEPHQRPITPLEPGPEKTPIAQPESKTLQGSNTQQKPASNQRPLTQQETPAQHDAESQKEPRAQQKSASQEEFLAPQKPAPQQSPYIQRVLLTQQEAASQQGPGLGKESITQQEPALRQRHVAQPGPGPGEPPPAQQEAESTPAAQAKPGAKREPSAPTESTSQETPEQSDKQTTPVQGAKSKQGSLTELGFLTKLQELSIQRSALEWKALSEWVTDSESESDVGSSSDTDSPATMGGMVAQGVKLGFKGKSGYKVMSGYSGTSPHEKTSARNHRHYQDTASRLIHNMDLRTMTQSLVTLAEDNIAFFSSQGPGETAQRLSGVFAGVREQALGLEPALGRLLGVAHLFDLDPETPANGYRSLVHTARCCLAHLLHKSRYVASNRRSIFFRTSHNLAELEAYLAALTQLRALVYYAQRLLVTNRPGVLFFEGDEGLTADFLREYVTLHKGCFYGRCLGFQFTPAIRPFLQTISIGLVSFGEHYKRNETGLSVAASSLFTSGRFAIDPELRGAEFERITQNLDVHFWKAFWNITEMEVLSSLANMASATVRVSRLLSLPPEAFEMPLTADPTLTVTISPPLAHTGPGPVLVRLISYDLREGQDSEELSSLIKSNGQRSLELWPRPQQAPRSRSLIVHFHGGGFVAQTSRSHEPYLKSWAQELGAPIISIDYSLAPEAPFPRALEECFFAYCWAIKHCALLGSTGERICLAGDSAGGNLCFTVALRAAAYGVRVPDGIMAAYPATMLQPAASPSRLLSLMDPLLPLSVLSKCVSAYAGAKTEDHSNSDQKALGMMGLVRRDTALLLRDFRLGASSWLNSFLELSGRKSQKMSEPIAEPMRRSVSEAALAQPQGPLGTDSLKNLTLRDLSLRGNSETSSDTPEMSLSAETLSPSTPSDVNFLLPPEDAGEEAEAKNELSPMDRGLGVRAAFPEGFHPRRSSQGATQMPLYSSPIVKNPFMSPLLAPDSMLKSLPPVHIVACALDPMLDDSVMLARRLRNLGQPVTLRVVEDLPHGFLTLAALCRETRQAAELCVERIRLVLTPPAGAGPSGETGAAGVDGGCGGRH

binding [2]: binds
B2: endogenous HSL (hormone-sensitive lipase) (enzyme, UniProt Q05469 1-1076)
chain: MEPGSKSVSRSDWQPEPHQRPITPLEPGPEKTPIAQPESKTLQGSNTQQKPASNQRPLTQQETPAQHDAESQKEPRAQQKSASQEEFLAPQKPAPQQSPYIQRVLLTQQEAASQQGPGLGKESITQQEPALRQRHVAQPGPGPGEPPPAQQEAESTPAAQAKPGAKREPSAPTESTSQETPEQSDKQTTPVQGAKSKQGSLTELGFLTKLQELSIQRSALEWKALSEWVTDSESESDVGSSSDTDSPATMGGMVAQGVKLGFKGKSGYKVMSGYSGTSPHEKTSARNHRHYQDTASRLIHNMDLRTMTQSLVTLAEDNIAFFSSQGPGETAQRLSGVFAGVREQALGLEPALGRLLGVAHLFDLDPETPANGYRSLVHTARCCLAHLLHKSRYVASNRRSIFFRTSHNLAELEAYLAALTQLRALVYYAQRLLVTNRPGVLFFEGDEGLTADFLREYVTLHKGCFYGRCLGFQFTPAIRPFLQTISIGLVSFGEHYKRNETGLSVAASSLFTSGRFAIDPELRGAEFERITQNLDVHFWKAFWNITEMEVLSSLANMASATVRVSRLLSLPPEAFEMPLTADPTLTVTISPPLAHTGPGPVLVRLISYDLREGQDSEELSSLIKSNGQRSLELWPRPQQAPRSRSLIVHFHGGGFVAQTSRSHEPYLKSWAQELGAPIISIDYSLAPEAPFPRALEECFFAYCWAIKHCALLGSTGERICLAGDSAGGNLCFTVALRAAAYGVRVPDGIMAAYPATMLQPAASPSRLLSLMDPLLPLSVLSKCVSAYAGAKTEDHSNSDQKALGMMGLVRRDTALLLRDFRLGASSWLNSFLELSGRKSQKMSEPIAEPMRRSVSEAALAQPQGPLGTDSLKNLTLRDLSLRGNSETSSDTPEMSLSAETLSPSTPSDVNFLLPPEDAGEEAEAKNELSPMDRGLGVRAAFPEGFHPRRSSQGATQMPLYSSPIVKNPFMSPLLAPDSMLKSLPPVHIVACALDPMLDDSVMLARRLRNLGQPVTLRVVEDLPHGFLTLAALCRETRQAAELCVERIRLVLTPPAGAGPSGETGAAGVDGGCGGRH

binding [3]: binds
binding [4]: binds
binding [5]: binds weakly
binding [6]: binds
B3: PKGα-HA (protein kinase cGMP-dependent 1, isoform α, HA-tagged) (enzyme, UniProt Q13976 1-671)
chain: MSELEEDFAKILMLKEERIKELEKRLSEKEEEIQELKRKLHKCQSVLPVPSTHIGPRTTRAQGISAEPQTYRSFHDLRQAFRKFTKSERSKDLIKEAILDNDFMKNLELSQIQEIVDCMYPVEYGKDSCIIKEGDVGSLVYVMEDGKVEVTKEGVKLCTMGPGKVFGELAILYNCTRTATVKTLVNVKLWAIDRQCFQTIMMRTGLIKHTEYMEFLKSVPTFQSLPEEILSKLADVLEETHYENGEYIIRQGARGDTFFIISKGTVNVTREDSPSEDPVFLRTLGKGDWFGEKALQGEDVRTANVIAAEAVTCLVIDRDSFKHLIGGLDDVSNKAYEDAEAKAKYEAEAAFFANLKLSDFNIIDTLGVGGFGRVELVQLKSEESKTFAMKILKKRHIVDTRQQEHIRSEKQIMQGAHSDFIVRLYRTFKDSKYLYMLMEACLGGELWTILRDRGSFEDSTTRFYTACVVEAFAYLHSKGIIYRDLKPENLILDHRGYAKLVDFGFAKKIGFGKKTWTFCGTPEYVAPEIILNKGHDISADYWSLGILMYELLTGSPPFSGPDPMKTYNIILRGIDMIEFPKKIAKNAANLIKKLCRDNPSERLGNLKNGVKDIQKHKWFEGFNWEGLRKGTLTPPIIPSVASPTDTSNFDSFPEDNDEPPPDDNSGWDIDF
